From US20110020218A1
Results are given in words; binding and its absence hold for the method and conditions named. Some entries that bind do so weakly or less than the wild type. Blank lines part the entries; values can stand above or below the binder they belong to.

The chains behind the UniProt entries cited, without tags or fusion partners.
UniProt P61073: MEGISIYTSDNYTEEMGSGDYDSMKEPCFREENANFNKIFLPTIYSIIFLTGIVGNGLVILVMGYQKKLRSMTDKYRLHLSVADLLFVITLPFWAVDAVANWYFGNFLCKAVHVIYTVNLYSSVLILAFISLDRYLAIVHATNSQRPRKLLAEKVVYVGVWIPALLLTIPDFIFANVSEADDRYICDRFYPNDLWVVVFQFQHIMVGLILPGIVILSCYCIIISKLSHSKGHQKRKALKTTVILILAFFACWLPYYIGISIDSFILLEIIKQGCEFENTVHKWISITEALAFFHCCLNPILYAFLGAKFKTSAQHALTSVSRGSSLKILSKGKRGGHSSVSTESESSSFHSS

Experiments:
[1] = target: human CXCR4 receptor (wild type) (human) (UniProt P61073); test: immunohistochemistry, 50 µg/ml, RAMOS and KARPAS299 xenograft tumor sections (formalin or Glyo-fixx fixed)
[2] = target: human CXCR4 receptor (wild type) (human) (UniProt P61073); test: FACS on NIH3T3-hCXCR4 transfected cells
[3] = target: human CXCR4 receptor (wild type) (human) (UniProt P61073); test: flow cytometry competition with biotinylated murine 515H7 on CXCR4 transfected NIH3T3 cells

binding [1]: binds
binding [2]: binds
B1: anti-CXCR4 Mab 515H7 (antibody, V domains shown)
VH: EVNLVESGGGLVQPGGSLRLSCATSGFTFTDNYMSWVRQPPGKALEWLGFIRNKANGYTTDYSASVRGRFTISRDNSQSILYLQMNALRAEDSATYYCARDVGSNYFDYWGQGTTLTVSS
VL: DIVMSQSPSSLAVSAGEKVTMSCKSSQSLFNSRTRKNYLAWYQQKPGQSPKLLIYWASARDSGVPARFTGSGSETYFTLTISRVQAEDLAVYYCMQSFNLRTFGGGTKLEIK

binding [3]: binds
B2: hz515H7 VH2 combined with the chimeric VL (cVL) (antibody, human IgG1, kappa, V domains shown)
VH: EVNLVESGGGLVQPGRSLRLSCTASGFTFTDNYMSWVRQAPGKGLEWLGFIRNKANGYTTDYAASVRGRFTISRDNSKSILYLQMNALRTEDTAVYYCARDVGSNYFDYWGQGTLVTVSS
VL: DIVMSQSPSSLAVSAGEKVTMSCKSSQSLFNSRTRKNYLAWYQQKPGQSPKLLIYWASARDSGVPARFTGSGSETYFTLTISRVQAEDLAVYYCMQSFNLRTFGGGTKLEIKR
